This is one part of the list. Many values rest on one well or one pass, so single values are uncertain.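 Cells were imaged in 1,536-well plates, and nuclei stained with an antibody against cleaved PARP were counted against all DNA-stained nuclei to give the apoptosis fraction. Screening doses were chosen to leave most cells alive, and resting and induced cleaved-PARP levels differ strongly between cell lines.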
Columns and labels:
Assay in all cases: cleaved PARP positive nuclei fraction relative to DMSO control; melanoma cells; higher = more apoptosis
Conditions in all cases: library dose: low library concentration; 72 h
CBRC034 = tested on: CBRC034 (line from a melanoma biopsy)
COLO792 = tested on: COLO792
COLO800 = tested on: COLO800
COLO829 = tested on: COLO829
G361 = tested on: G361
IPC-298 = tested on: IPC-298
IST-MEL1 = tested on: IST-MEL1
LB2518-MEL = tested on: LB2518-MEL
LOXIMVI = tested on: LOXIMVI
MZ2-MEL = tested on: MZ2-MEL
MeWo = tested on: MeWo
RPMI7951 = tested on: RPMI7951
RVH-421 = tested on: RVH-421
SkMel28 = tested on: SkMel28
SkMel30 = tested on: SkMel30
SkMel5 = tested on: SkMel5
UACC257 = tested on: UACC257
UACC62 = tested on: UACC62

SMILES | cleaved PARP positive nuclei fraction (CBRC034) [%] | cleaved PARP positive nuclei fraction (COLO792) [%] | cleaved PARP positive nuclei fraction (COLO800) [%] | cleaved PARP positive nuclei fraction (COLO829) [%] | cleaved PARP positive nuclei fraction (G361) [%] | cleaved PARP positive nuclei fraction (IPC-298) [%] | cleaved PARP positive nuclei fraction (IST-MEL1) [%] | cleaved PARP positive nuclei fraction (LB2518-MEL) [%] | cleaved PARP positive nuclei fraction (LOXIMVI) [%] | cleaved PARP positive nuclei fraction (MZ2-MEL) [%] | cleaved PARP positive nuclei fraction (MeWo) [%] | cleaved PARP positive nuclei fraction (RPMI7951) [%] | cleaved PARP positive nuclei fraction (RVH-421) [%] | cleaved PARP positive nuclei fraction (SkMel28) [%] | cleaved PARP positive nuclei fraction (SkMel30) [%] | cleaved PARP positive nuclei fraction (SkMel5) [%] | cleaved PARP positive nuclei fraction (UACC257) [%] | cleaved PARP positive nuclei fraction (UACC62) [%]
COc1ccc(-c2ccc3c(N4CCOCC4)nc(N4C[C@@H](C)O[C@@H](C)C4)nc3n2)cc1CO + CCN(CC)CCCCNc1ncc2cc(-c3cc(OC)cc(OC)c3)c(NC(=O)NC(C)(C)C)nc2n1 [PD173074] (first compound 0.02 µM, partner dose 0.1 µM) | 86.8 | 138 | 141 | 163 | 99 | 183 | 34.7 | 139 | 23.3 | 72.1 | 108 | 88.8 | 112 | 121 | 73.8 | 80.9 | 109 | 173
COC(=O)c1sccc1S(=O)(=O)Nc1ccc(Nc2ccccc2)cc1OC + Cn1cc(/C=C2\C(=O)Nc3cccnc32)c2ccccc21 [GW441756] (first compound 1 µM, partner dose 0.4 µM) | 22.5 | 67.7 | 75.2 | 80.7 | 111 | 26.8 | 244 | 75.1 | 55 | 118 | 53.4 | 43.7 | 76.5 | 71.2 | 86.9 | 134 | 71.2 | 95.1
COC(=O)c1sccc1S(=O)(=O)Nc1ccc(Nc2ccccc2)cc1OC + Oc1nc(-c2ccc(C(F)(F)F)cc2)nc2c1CSCC2 [XAV939] (first compound 1 µM, partner dose 2 µM) | 49.4 | 127 | 49.4 | 148 | 114 | 55.1 | 29.6 | 88.3 | 104 | 93.3 | 127 | 92.9 | 26.7 | 102 | 22.1 | 65.7 | 56.4 | 42.4
NCC(=O)Nc1ccc(-n2nc(C(F)(F)F)cc2-c2ccc3c(ccc4ccccc43)c2)cc1 + O=C(Nc1ccccc1)c1cc([N+](=O)[O-])ccc1Cl [GW9662] (first compound 1 µM, partner dose 2 µM) | 151 | 181 | 159 | 78.9 | 52.8 | 134 | 29.9 | 80.1 | 46.6 | 210 | 404 | 42.5 | 102 | 136 | 38.4 | 63.5 | 244 | 180
O=C(Nc1ccccc1)c1cc([N+](=O)[O-])ccc1Cl + COc1cc2ncnc(Nc3ccc(Oc4ccccc4)cc3)c2cc1OC [SrcI1] (first compound 2 µM, partner dose 2 µM) | 45.3 | 90.5 | 111 | 103 | 95.2 | 139 | 98.6 | 141 | 24.5 | 183 | 70.5 | 66.1 | 18.6 | 120 | 93 | 18.1 | 80.1 | 34.7
COc1cc2c(Oc3ccc4[nH]c(C)cc4c3F)ncnc2cc1OCCCN1CCCC1 [cediranib] + O=S(=O)(c1ccccc1)N(CC(F)(F)F)c1ccc(C(O)(C(F)(F)F)C(F)(F)F)cc1 [T0901317] (first compound 0.4 µM, partner dose 1.4 µM) | 75 | 59.2 | 127 | 29.2 | 88.1 | 159 | 77.7 | 55.5 | 21.9 | 87.1 | 103 | 71.3 | 145 | 74.6 | 127 | 68.4 | 121 | 197
CCc1ccc(CCOc2ccc(CC3SC(=O)NC3=O)cc2)nc1 (configuration not stated) [pioglitazone] + COc1ccc2c(c1)CCC1C2CCC2(C)C(NCCCCCCN3C(=O)C=CC3=O)CCC12 [U73122] (first compound 2 µM, partner dose 0.4 µM) | 100 | 202 | 98.9 | 65 | 204 | 43.9 | 29.6 | 140 | 90.8 | 122 | 78.5 | 81.4 | 119 | 155 | 37.7 | 32.6 | 227 | 35.6
N#Cc1c(O)c2c(-c3ccc(-c4ccccc4O)cc3)csc2[nH]c1=O + COc1ccc(COc2ccc(Cc3cnc(N)nc3N)cc2OC)cc1 [GW2580] (first compound 2 µM, partner dose 1 µM) | 37.9 | 88.9 | 128 | 137 | 145 | 91.9 | 354 | 234 | 61.5 | 70.6 | 144 | 37.3 | 117 | 58.6 | 27.5 | 57.5 | 69 | 33.8
Cc1cc([N+](=O)[O-])ccc1NS(=O)(=O)c1cc(Cl)ccc1Cl + Oc1nc(-c2ccc(C(F)(F)F)cc2)nc2c1CSCC2 [XAV939] (first compound 1 µM, partner dose 2 µM) | 200 | 87.4 | 130 | 83.8 | 317 | 146 | 102 | 82.2 | 153 | 82.7 | 30.3 | 47.6 | 99.2 | 86.2 | 12.7 | 33.6 | 80.6 | 55.4
O=C(Nc1ccccc1)c1cc([N+](=O)[O-])ccc1Cl + Oc1cc(-c2nc(-c3ccccc3)[nH]c2-c2ccncc2)ccc1Cl [L779450] (first compound 2 µM, partner dose 0.2 µM) | 124 | 76.3 | 119 | 100 | 105 | 125 | 59.9 | 218 | 59 | 108 | 29.5 | 76.5 | 43.7 | 65.3 | 47.2 | 50.6 | 126 | 94.5
COc1cc2c(Oc3ccc4[nH]c(C)cc4c3F)ncnc2cc1OCCCN1CCCC1 [cediranib] + O=C1NC(=O)/C(=C/c2ccc(-c3ccc(F)cc3O)o2)S1 [AS252424] (first compound 0.4 µM, partner dose 1 µM) | 21.2 | 101 | 61.2 | 87.9 | 45.4 | 56.5 | 55.2 | 94.2 | 68.3 | 152 | 26.6 | 180 | 46.2 | 93.2 | 64.4 | 94.1 | 146 | 250
CN(NC(=O)CC(=O)NN(C)C(=S)c1ccccc1)C(=S)c1ccccc1 + Oc1nc(-c2ccc(C(F)(F)F)cc2)nc2c1CSCC2 [XAV939] (first compound 0.006 µM, partner dose 2 µM) | 62 | 122 | 311 | 189 | 62.1 | 65 | 141 | 278 | 48.9 | 71.6 | 112 | 384 | 104 | 118 | 22.9 | 167 | 179 | 69.4
NCC(=O)Nc1ccc(-n2nc(C(F)(F)F)cc2-c2ccc3c(ccc4ccccc43)c2)cc1 + O=S(=O)(c1ccccc1)N(CC(F)(F)F)c1ccc(C(O)(C(F)(F)F)C(F)(F)F)cc1 [T0901317] (first compound 1 µM, partner dose 1.4 µM) | 65.8 | 83.3 | 147 | 142 | 116 | 72.6 | 41.9 | 80.4 | 76.6 | 151 | 374 | 77.7 | 12.8 | 174 | 16.2 | 78.3 | 134 | 151
COC(=O)c1sccc1S(=O)(=O)Nc1ccc(Nc2ccccc2)cc1OC + O=C1NC(=O)/C(=C/c2ccc(-c3ccc(F)cc3O)o2)S1 [AS252424] (first compound 1 µM, partner dose 1 µM) | 92.5 | 48.3 | 44.1 | 118 | 61.7 | 53.5 | 129 | 182 | 56.9 | 52.1 | 211 | 275 | 104 | 117 | 49.1 | 32.4 | 88 | 76.7
COC(=O)c1sccc1S(=O)(=O)Nc1ccc(Nc2ccccc2)cc1OC + COc1ccc2c(c1)CCC1C2CCC2(C)C(NCCCCCCN3C(=O)C=CC3=O)CCC12 [U73122] (first compound 1 µM, partner dose 0.4 µM) | 83.4 | 150 | 100 | 91.3 | 102 | 41.6 | 45.8 | 82.7 | 49.1 | 127 | 287 | 86.7 | 42.9 | 147 | 54.2 | 254 | 109 | 38.1
N#Cc1c(O)c2c(-c3ccc(-c4ccccc4O)cc3)csc2[nH]c1=O + COc1ccc(-c2ccc3c(N4CCOCC4)nc(N4C[C@@H](C)O[C@@H](C)C4)nc3n2)cc1CO [KU0063794] (first compound 2 µM, partner dose 0.02 µM) | 76.8 | 172 | 140 | 80.3 | 64.9 | 42.2 | 104 | 80.2 | 55.7 | 233 | 55 | 36.9 | 98.9 | 140 | 108 | 57.5 | 98 | 37.4
COc1ccc(COc2ccc(Cc3cnc(N)nc3N)cc2OC)cc1 + Cc1cc([N+](=O)[O-])ccc1NS(=O)(=O)c1cc(Cl)ccc1Cl [FH535] (first compound 1 µM, partner dose 1 µM) | 177 | 144 | 73.2 | 129 | 142 | 87.6 | 139 | 79.1 | 65.5 | 72.8 | 57.3 | 152 | 104 | 113 | 119 | 32.6 | 91.8 | 166
CN(C)S(=O)(=O)c1ccc2c(c1)/C(=C/c1cc3c([nH]1)CCCC3)C(=O)N2 + COc1ccc(-c2ccc3c(N4CCOCC4)nc(N4C[C@@H](C)O[C@@H](C)C4)nc3n2)cc1CO [KU0063794] (first compound 0.4 µM, partner dose 0.02 µM) | 91.4 | 72.4 | 109 | 96.3 | 230 | 78.5 | 91.4 | 90.2 | 54.2 | 198 | 83.4 | 84.8 | 23.2 | 168 | 35.4 | 86.9 | 214 | 188
O=C(Nc1ccccc1)c1cc([N+](=O)[O-])ccc1Cl + N#Cc1c(O)c2c(-c3ccc(-c4ccccc4O)cc3)csc2[nH]c1=O [A769662] (first compound 2 µM, partner dose 2 µM) | 46.8 | 92.3 | 101 | 103 | 72.5 | 21.7 | 42 | 77.5 | 83.1 | 101 | 49.2 | 37.7 | 19.6 | 71.9 | 268 | 63.2 | 157 | 74.7

Rewritten in CSV form: part of the list above
SMILES,cleaved PARP positive nuclei fraction (CBRC034) [%],cleaved PARP positive nuclei fraction (COLO792) [%],cleaved PARP positive nuclei fraction (COLO800) [%],cleaved PARP positive nuclei fraction (COLO829) [%],cleaved PARP positive nuclei fraction (G361) [%],cleaved PARP positive nuclei fraction (IPC-298) [%],cleaved PARP positive nuclei fraction (IST-MEL1) [%],cleaved PARP positive nuclei fraction (LB2518-MEL) [%],cleaved PARP positive nuclei fraction (LOXIMVI) [%],cleaved PARP positive nuclei fraction (MZ2-MEL) [%],cleaved PARP positive nuclei fraction (MeWo) [%],cleaved PARP positive nuclei fraction (RPMI7951) [%],cleaved PARP positive nuclei fraction (RVH-421) [%],cleaved PARP positive nuclei fraction (SkMel28) [%],cleaved PARP positive nuclei fraction (SkMel30) [%],cleaved PARP positive nuclei fraction (SkMel5) [%],cleaved PARP positive nuclei fraction (UACC257) [%],cleaved PARP positive nuclei fraction (UACC62) [%]
"COC(=O)c1sccc1S(=O)(=O)Nc1ccc(Nc2ccccc2)cc1OC + Oc1nc(-c2ccc(C(F)(F)F)cc2)nc2c1CSCC2 [XAV939] (first compound 1 µM, partner dose 2 µM)",49.4,127,49.4,148,114,55.1,29.6,88.3,104,93.3,127,92.9,26.7,102,22.1,65.7,56.4,42.4
"NCC(=O)Nc1ccc(-n2nc(C(F)(F)F)cc2-c2ccc3c(ccc4ccccc43)c2)cc1 + O=C(Nc1ccccc1)c1cc([N+](=O)[O-])ccc1Cl [GW9662] (first compound 1 µM, partner dose 2 µM)",151,181,159,78.9,52.8,134,29.9,80.1,46.6,210,404,42.5,102,136,38.4,63.5,244,180
"O=C(Nc1ccccc1)c1cc([N+](=O)[O-])ccc1Cl + COc1cc2ncnc(Nc3ccc(Oc4ccccc4)cc3)c2cc1OC [SrcI1] (first compound 2 µM, partner dose 2 µM)",45.3,90.5,111,103,95.2,139,98.6,141,24.5,183,70.5,66.1,18.6,120,93,18.1,80.1,34.7
"COc1cc2c(Oc3ccc4[nH]c(C)cc4c3F)ncnc2cc1OCCCN1CCCC1 [cediranib] + O=S(=O)(c1ccccc1)N(CC(F)(F)F)c1ccc(C(O)(C(F)(F)F)C(F)(F)F)cc1 [T0901317] (first compound 0.4 µM, partner dose 1.4 µM)",75,59.2,127,29.2,88.1,159,77.7,55.5,21.9,87.1,103,71.3,145,74.6,127,68.4,121,197
"CCc1ccc(CCOc2ccc(CC3SC(=O)NC3=O)cc2)nc1 (configuration not stated) [pioglitazone] + COc1ccc2c(c1)CCC1C2CCC2(C)C(NCCCCCCN3C(=O)C=CC3=O)CCC12 [U73122] (first compound 2 µM, partner dose 0.4 µM)",100,202,98.9,65,204,43.9,29.6,140,90.8,122,78.5,81.4,119,155,37.7,32.6,227,35.6

— the supplement of paper PMC4604168 (melanoma cell lines)
